We go through 1 molecule from patent US20220003782A1 (METAFORA BIOSYSTEMS, published 2022).

These are yes or no findings as the source states them, for the method shown. Some results given as binding are weak or reduced against the parent protein; the word gives no strength. Where a sequence is shown, tags or fusion partners need not be part of it.

Experiment [1] deals with T1, sodium-dependent multivitamin transporter / solute carrier family 5 member 6 (SMVT/SLC5A6) (human) (UniProt Q9Y289).
T1 sequence: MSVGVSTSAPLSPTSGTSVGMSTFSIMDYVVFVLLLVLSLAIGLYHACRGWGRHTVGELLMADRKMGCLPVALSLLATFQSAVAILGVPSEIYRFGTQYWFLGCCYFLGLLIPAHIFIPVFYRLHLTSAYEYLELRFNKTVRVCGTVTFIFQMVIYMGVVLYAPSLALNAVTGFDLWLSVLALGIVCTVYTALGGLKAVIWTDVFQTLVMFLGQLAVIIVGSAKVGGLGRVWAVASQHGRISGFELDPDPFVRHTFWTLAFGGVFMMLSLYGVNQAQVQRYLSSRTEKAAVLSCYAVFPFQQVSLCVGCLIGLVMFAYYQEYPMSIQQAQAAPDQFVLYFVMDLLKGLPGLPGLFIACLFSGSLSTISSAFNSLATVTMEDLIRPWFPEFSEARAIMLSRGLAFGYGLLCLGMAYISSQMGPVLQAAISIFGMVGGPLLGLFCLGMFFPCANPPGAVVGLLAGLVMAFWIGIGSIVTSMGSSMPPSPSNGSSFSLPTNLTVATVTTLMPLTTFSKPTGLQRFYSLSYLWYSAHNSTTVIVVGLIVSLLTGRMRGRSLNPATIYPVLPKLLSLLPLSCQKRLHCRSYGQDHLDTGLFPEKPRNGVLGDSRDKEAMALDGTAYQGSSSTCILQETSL
Put plainly: flow cytometry on HEK293T cells with siLUC or siSMVT A.

Experiment [2] addresses T1, sodium-dependent multivitamin transporter / solute carrier family 5 member 6 (SMVT/SLC5A6) (human). Put plainly: flow cytometry on HEK 293T cells with siLUC or siSMVT.

B1: PERV-B RBD ligand fused to a mouse Fc fragment (SEQ ID NO: 13) (Fc fusion)
chain: KRLIDSSNPHRPLSLTWLIIDPDTGVTVNSTRGVAPRGTWWPELHFCLRLINPAVKSTPPNLVRSYGFYCCPGTEKEKYCGGSEESFCRRWSCVTSNDGDWKWPISLQDRVKFSFVNSGPGKYKVMKLYKDKSCSPSDLDYLKISFTEKGKQENIQKWINGMSWGIVFYKYGGGAGSTLTIRLRIEAGTEPPVAVGSVDVPRDCGCKPCICTVPEVSSVFIFPPKPKDVLTITLTPKVTCVVVDISKDDPEVQFSWFVDDVEVHTAQTQPREEQFNSTFRSVSELPIMHQDWLNGKEFKCRVNSAAFPAPIEKTISKTKGRPKAPQVYTIPPPKEQMAKDKVSLTCMITDFFPEDITVEWQWNGQPAENYKNTQPIMDTDGSYFVYSKLNVQKSNWEAGNTFTCSVLHEGLHNHHTEKSLSHSPGK
As to B1, the binding result in experiment [1] and in experiment [2] was “binds” throughout.
